The other results are listed elsewhere or left out. This data set is noisy: repeats of one test often differ as much as different tests do.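 The human kidney-derived cells carry a stably integrated construct of eight TEAD-binding elements driving luciferase, read by luminescence in a drug-repurposing library screen. A compound counts as a hit when its signal is more than five robust Z scores above the plate mean.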
System: HEK293A TEAD-LUC reporter
Experiment: TEAD-luciferase reporter activity (YAP activation), robust Z score vs plate; higher = stronger YAP/TEAD activation
Details: 24 h

| SMILES | TEAD-luciferase reporter activity (compound concentration: 200 nM) | TEAD-luciferase reporter activity (compound concentration: 10 uM) | TEAD-luciferase reporter activity (compound concentration: 2 uM) |
| --- | --- | --- | --- |
| CCCC(=O)N1Cc2ccccc2CC2(CCCN2Cc2ccc(OC)cc2)C1 (configuration not stated) | inactive: 1.18 | inactive: 0.104 | – |
| CC1CNc2c(cccc2S(=O)(=O)N[C@@H](CCCNC(=N)N)C(=O)N2CC[C@@H](C)C[C@@H]2C(=O)O)C1 (some centres not stated) [argatroban] | inactive: 0.85 | inactive: -0.799 | inactive: -1.8 |
| Cc1cc(C(=O)NCCc2ccc(S(=O)(=O)NC(=O)NN3CCCCCC3)cc2)no1 [Glisoxepide] | inactive: -1.25 | inactive: -1.83 | inactive: 0.632 |
| Oc1ccc2c(c1)CC[C@H](c1ccccc1)[C@@H]2c1ccc(OCCN2CCCC2)cc1 [Lasofoxifene] | inactive: -1.95 | inactive: -1.36 | inactive: -0.509 |
| CC(C)Oc1ccc(-c2nn([C@@H](C)c3oc4ccc(F)cc4c(=O)c3-c3cccc(F)c3)c3ncnc(N)c23)cc1F | inactive: 0.224 | inactive: 1.74 | inactive: -1.31 |
| CC(=O)O[C@H]1C[C@@H]2C(COC(=O)CC(C)C)=CO[C@@H](OC(=O)CC(C)C)[C@@H]2[C@@]12CO2 | inactive: -1.41 | inactive: 0.372 | inactive: 4.87 |
| CCOC(=O)c1ccccc1NC(=O)c1ccc(NC(=O)CC)cc1 | inactive: -0.55 | inactive: -0.477 | inactive: 2.25 |
| C=CCN1C(=O)OC(C)C1=O (configuration not stated) | inactive: 1.27 | inactive: -0.0864 | inactive: -1.1 |
| CN(C)CC(O)COc1ccccc1C1CC2CCC1C2 (configuration not stated) | inactive: 0.305 | inactive: 0.207 | inactive: -1.94 |
| CN(CCc1ccccc1)CCc1ccccc1 | inactive: -0.39 | inactive: 2.49 | inactive: 2.12 |
| NC(=O)[C@@H]1CCCN1 | inactive: -0.445 | inactive: -0.237 | inactive: 2.25 |
| N[C@H]1CCN(S(=O)(=O)c2cccc3cnccc23)C1 | inactive: -0.472 | inactive: -0.885 | inactive: -0.432 |
| NC(=O)Nc1cc(-c2cccc(F)c2)sc1C(=O)N[C@H]1CCCNC1 | inactive: 2.44 | inactive: -1.87 | inactive: 0.905 |
| C[C@@H]1O[C@@H](OC[C@H]2O[C@@H](Oc3c(-c4ccc(OCCO)c(OCCO)c4)oc4cc(OCCO)cc(O)c4c3=O)[C@H](O)[C@@H](O)[C@@H]2O)[C@H](O)[C@H](O)[C@H]1O [Factor P-Zyma] | active: 5.09 | inactive: -1.86 | inactive: -0.751 |
| CCN(CC)C(=O)C1CN2CCc3cc(OC)c(OC)cc3C2CC1OC(C)=O (configuration not stated) | inactive: -1.22 | inactive: -1.03 | inactive: -0.755 |
| NC(=O)C(F)(F)C(O)(Cn1cncn1)c1ccc(F)cc1F (configuration not stated) | inactive: 3.62 | inactive: -0.67 | inactive: 0.254 |
| Cc1cccc(C(=O)N2CCC(N3CCC(Cc4ccc(S(=O)(=O)c5cccc(Cl)c5)cc4)CC3)CC2)c1N | inactive: -0.671 | inactive: -1.3 | inactive: -1.11 |
| CC(C)=CCOc1cc(NC(=S)c2ccccc2)ccc1Cl | inactive: 0.338 | inactive: 3.15 | inactive: 3.27 |
| Cc1ccc(C(=O)N(CCCN)[C@@H](c2oc3cc(Cl)ccc3c(=O)c2Cc2ccccc2)C(C)C)cc1 | inactive: -0.553 | inactive: -2.23 | inactive: 1.17 |
| Nc1ccc(C(=O)O)cc1 | inactive: 1.81 | inactive: 0.344 | inactive: -0.58 |
| O=C(O)c1cnc(N2C[C@@H]3[C@H](C2)[C@H]3NCc2ccc3cc(F)ccc3n2)nc1 | inactive: -0.879 | inactive: -0.698 | inactive: -1.29 |
| CC(=O)OCC(=O)[C@@]1(O)CC[C@H]2[C@@H]3CCC4=CC(=O)CC[C@]4(C)[C@@]3(F)[C@@H](O)C[C@@]21C [dexamethasone acetate, Laboratoires CTRS] | inactive: -0.146 | inactive: 1.48 | – |
| CC(=O)OCC(=O)[C@@]1(O)CC[C@H]2[C@@H]3CCC4=CC(=O)CC[C@]4(C)[C@@]3(F)[C@@H](O)C[C@@]21C [Fludrocortisone (acetate)] | – | – | inactive: -0.857 |
| CC(=O)OCC(=O)[C@@]1(O)CC[C@H]2[C@@H]3CCC4=CC(=O)CC[C@]4(C)[C@@]3(F)[C@@H](O)C[C@@]21C [Fludrocortisone acetate] | – | – | inactive: 0.714 |
| CC[C@H](NC(=O)c1c(O)c(-c2ccccc2)nc2ccccc12)c1ccccc1 [talnetant] | inactive: -0.944 | inactive: 0.0867 | inactive: -0.5 |
| CCCN(CCCCCCNCCc1ccccc1)C1CCc2c(ccc(O)c2O)C1 (configuration not stated) | inactive: -1.7 | inactive: 0.0935 | inactive: -0.814 |

An excerpt from further up, for reference:

| SMILES | TEAD-luciferase reporter activity (compound concentration: 200 nM) | TEAD-luciferase reporter activity (compound concentration: 10 uM) | TEAD-luciferase reporter activity (compound concentration: 2 uM) |
| --- | --- | --- | --- |
| C=CCN1C(=O)OC(C)C1=O (configuration not stated) | inactive: 1.27 | inactive: -0.0864 | inactive: -1.1 |
| CN(C)CC(O)COc1ccccc1C1CC2CCC1C2 (configuration not stated) | inactive: 0.305 | inactive: 0.207 | inactive: -1.94 |
| CN(CCc1ccccc1)CCc1ccccc1 | inactive: -0.39 | inactive: 2.49 | inactive: 2.12 |
| NC(=O)[C@@H]1CCCN1 | inactive: -0.445 | inactive: -0.237 | inactive: 2.25 |
| N[C@H]1CCN(S(=O)(=O)c2cccc3cnccc23)C1 | inactive: -0.472 | inactive: -0.885 | inactive: -0.432 |
| NC(=O)Nc1cc(-c2cccc(F)c2)sc1C(=O)N[C@H]1CCCNC1 | inactive: 2.44 | inactive: -1.87 | inactive: 0.905 |
| C[C@@H]1O[C@@H](OC[C@H]2O[C@@H](Oc3c(-c4ccc(OCCO)c(OCCO)c4)oc4cc(OCCO)cc(O)c4c3=O)[C@H](O)[C@@H](O)[C@@H]2O)[C@H](O)[C@H](O)[C@H]1O [Factor P-Zyma] | active: 5.09 | inactive: -1.86 | inactive: -0.751 |
| CCN(CC)C(=O)C1CN2CCc3cc(OC)c(OC)cc3C2CC1OC(C)=O (configuration not stated) | inactive: -1.22 | inactive: -1.03 | inactive: -0.755 |

Reference: the supplement of paper PMC10735217
